Reference: article PMC12435490
Results are given in words; binding and its absence hold for the method and conditions named. In cells and extracts the contact can be indirect. A yes stands for co-enrichment or nearness to the bait. Other partners may have been found. Sequences can lack the tags named with a protein.

Chains of the proteins cited; added tags and fusions are not shown.
UniProt P30153: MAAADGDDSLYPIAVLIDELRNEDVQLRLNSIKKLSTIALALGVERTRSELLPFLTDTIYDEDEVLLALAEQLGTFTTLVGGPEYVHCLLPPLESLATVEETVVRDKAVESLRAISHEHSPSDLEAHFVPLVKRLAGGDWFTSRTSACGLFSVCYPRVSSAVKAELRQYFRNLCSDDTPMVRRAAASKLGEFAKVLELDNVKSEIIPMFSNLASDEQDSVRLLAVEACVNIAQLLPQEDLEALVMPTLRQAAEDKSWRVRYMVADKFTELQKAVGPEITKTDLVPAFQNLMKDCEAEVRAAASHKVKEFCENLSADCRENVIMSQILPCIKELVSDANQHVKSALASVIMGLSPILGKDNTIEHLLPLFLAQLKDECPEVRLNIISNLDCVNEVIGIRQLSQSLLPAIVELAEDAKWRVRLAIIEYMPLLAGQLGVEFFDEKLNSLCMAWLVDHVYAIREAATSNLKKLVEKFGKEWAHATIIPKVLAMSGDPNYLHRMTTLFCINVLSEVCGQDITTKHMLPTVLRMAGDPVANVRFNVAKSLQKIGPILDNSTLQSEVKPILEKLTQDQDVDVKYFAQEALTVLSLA
UniProt P67775: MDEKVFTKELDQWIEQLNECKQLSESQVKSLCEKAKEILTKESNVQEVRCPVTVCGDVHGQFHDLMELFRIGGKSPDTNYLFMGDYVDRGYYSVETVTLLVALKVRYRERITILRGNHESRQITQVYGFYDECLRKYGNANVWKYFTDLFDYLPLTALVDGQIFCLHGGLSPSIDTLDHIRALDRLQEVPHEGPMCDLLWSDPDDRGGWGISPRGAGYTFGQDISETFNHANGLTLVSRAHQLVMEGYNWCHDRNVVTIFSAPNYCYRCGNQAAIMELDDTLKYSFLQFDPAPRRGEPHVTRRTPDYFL

Target: T1, Flag-MKRN2, expressed in A498 cells (human) (UniProt Q9H000)
T1 sequence: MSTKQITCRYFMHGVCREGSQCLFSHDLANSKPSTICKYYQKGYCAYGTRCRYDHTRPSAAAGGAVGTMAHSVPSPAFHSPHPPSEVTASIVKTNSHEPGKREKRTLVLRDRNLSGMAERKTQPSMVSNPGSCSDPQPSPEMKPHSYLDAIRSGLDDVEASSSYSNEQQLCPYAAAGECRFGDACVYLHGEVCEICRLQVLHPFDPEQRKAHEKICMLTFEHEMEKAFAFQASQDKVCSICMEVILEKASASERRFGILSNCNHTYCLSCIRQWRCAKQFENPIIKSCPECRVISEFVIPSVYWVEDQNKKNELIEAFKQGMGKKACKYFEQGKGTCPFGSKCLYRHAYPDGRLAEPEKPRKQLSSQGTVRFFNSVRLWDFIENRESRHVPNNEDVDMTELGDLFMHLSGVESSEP
Experiment: affinity purification with mass spectrometry; co-IP of Flag-MKRN2 against vector control from A498 cells; gel strips analysed by mass spectrometry

Row | binding | Substance
1 | binds | PPP2R1A, endogenous (from UniProt P30153 1-589)
2 | binds | Protein Phosphatase 2 Catalytic Subunit Alpha (PPP2CA), endogenous (from UniProt P67775 1-309)
